We go through one substance from paper PMC12527940, “Conformational plasticity of a BiP–GRP94 chaperone complex” (Nature Structural & Molecular Biology, 2025).

Sequences of proteins named here, by UniProt entry; tags and fusion partners are left off. A change or cut given only in a name is not applied to a line headed by its entry. Residues count along the entry.
UniProt P08113, residues 73-802: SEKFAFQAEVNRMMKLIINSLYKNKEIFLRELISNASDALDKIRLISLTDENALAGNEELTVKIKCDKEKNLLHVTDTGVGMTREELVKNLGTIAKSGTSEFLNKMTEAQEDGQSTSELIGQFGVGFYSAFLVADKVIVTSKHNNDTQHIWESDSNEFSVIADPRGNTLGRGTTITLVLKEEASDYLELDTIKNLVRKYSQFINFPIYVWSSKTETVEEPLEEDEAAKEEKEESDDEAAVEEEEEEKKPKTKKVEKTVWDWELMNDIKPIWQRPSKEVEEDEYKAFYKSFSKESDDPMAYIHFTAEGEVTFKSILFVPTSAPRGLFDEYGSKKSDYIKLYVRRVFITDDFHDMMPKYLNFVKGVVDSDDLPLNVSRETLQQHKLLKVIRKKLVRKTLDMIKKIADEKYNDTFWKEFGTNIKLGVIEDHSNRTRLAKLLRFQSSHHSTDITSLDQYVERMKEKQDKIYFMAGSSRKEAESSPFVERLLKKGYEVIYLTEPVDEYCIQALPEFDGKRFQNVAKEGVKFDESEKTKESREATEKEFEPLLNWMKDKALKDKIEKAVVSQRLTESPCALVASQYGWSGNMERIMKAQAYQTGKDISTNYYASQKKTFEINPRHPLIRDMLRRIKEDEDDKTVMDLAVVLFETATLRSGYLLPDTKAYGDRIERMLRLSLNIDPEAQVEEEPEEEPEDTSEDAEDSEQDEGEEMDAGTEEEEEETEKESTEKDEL

The assay concerns the target GRP94 Δ72^noPT (UniProt P08113). Briefly: cross-linking; XL-MS: DSBU crosslinking (4 µM each), high-molecular-weight SDS–PAGE bands digested and analysed by LC–MS/MS, 5% FDR on residue pairs; GRP94 Δ72^noPT samples with 100 µM PU-WS13; both purified.

No constants are given. Whether binding was seen depends on the method and setting. Some results given as binding are weak or reduced against the parent protein; the word gives no strength.

Turning to “GRP94 Δ72^noPT (from UniProt P08113 73-802) (domain or fragment)”, the binding result is “binds”.
